Read-outs that look alike come from different tables or passages of the source.
How the values were obtained:
Caco-2 cell monolayers [1] = experiment: Bidirectional permeability across Caco-2 cell monolayers
Caco-2 cell monolayers [2] = conditions: cited from earlier work
[3] = matrix: pH 7.4 buffer, ref 31 (quinine), 78 (DSM421)

Structure (SMILES) | A–B mass bal (Caco-2 cell monolayers [1]; matrix: human plasma) [%] | B–A mass bal (Caco-2 cell monolayers [1]; matrix: human plasma) [%] | A–B mass bal (Caco-2 cell monolayers [1]; matrix: pH 7.4 buffer) [%] | B–A mass bal (Caco-2 cell monolayers [1]; matrix: pH 7.4 buffer) [%] | also measured
CCN(CC)CCCNc1ccnc2cc(Cl)ccc12.Cl.Cl [AQ-13] | 54 | 92 |  |  | 
CO[C@H]1O[C@@H]2O[C@@]3(C)CC[C@H]4[C@H](C)CC[C@@H]([C@H]1C)[C@@]24OO3 [Artemether] |  |  | 73 | 95 | 
C[C@H]1[C@H](N2CCS(=O)(=O)CC2)O[C@@H]2O[C@@]3(C)CC[C@H]4[C@H](C)CC[C@@H]1[C@@]24OO3 [Artemisone] |  |  | 98 | 99 | 
O=C1C(O)=C([C@H]2CC[C@H](c3ccc(Cl)cc3)CC2)C(=O)c2ccccc21 [Atovaquone] |  |  |  |  | A–B mass bal (Caco-2 cell monolayers [2]; matrix: human plasma): 99%; B–A mass bal (Caco-2 cell monolayers [2]; matrix: human plasma): 97%
CC[C@H]1OC(=O)[C@H](C)[C@@H](O[C@H]2C[C@@](C)(OC)[C@@H](O)[C@H](C)O2)[C@H](C)[C@@H](O[C@@H]2O[C@H](C)C[C@H](N(C)C)[C@H]2O)[C@](C)(O)C[C@@H](C)CN(C)[C@H](C)[C@@H](O)[C@]1(C)O [Azithromycin] |  |  | 98 | 87 | 
CC(C)NC(=N)NC(=N)Nc1ccc(Cl)c(Cl)c1 [Chlorproguanil] | 79 | 100 |  |  | 
CC1(C)N=C(N)N=C(N)N1c1ccc(Cl)cc1 [Cycloguanil] |  |  | 100 | 100 | 
Cc1cc(Nc2ccc(S(F)(F)(F)(F)F)cc2)n2nc(C(C)(F)F)nc2n1 [DSM265] |  |  | 83 | 93 | 
Cc1cc(Nc2ccc(C(F)(F)F)nc2)n2nc(C(C)(F)F)nc2n1 [DSM421] |  |  |  |  | A–B mass bal (Caco-2 cell monolayers [2]; [3]): 70%; B–A mass bal (Caco-2 cell monolayers [2]; [3]): 98%
C[C@H]1[C@@H](O)O[C@@H]2O[C@@]3(C)CC[C@H]4[C@H](C)CC[C@@H]1[C@@]24OO3 [Dihydroartemisinin] |  |  | 85 | 91 | 
C[C@H]1c2cccc(O)c2C(=O)C2=C(O)[C@]3(O)C(=O)C(C(N)=O)=C(O)[C@@H](N(C)C)[C@@H]3[C@@H](O)[C@@H]21 [Doxycyclin] |  |  | 99 | 110 | 
COc1cc2[nH]c(C)c(-c3ccc(Oc4ccc(OC(F)(F)F)cc4)cc3)c(=O)c2cc1Cl [ELQ300] | 99 | 110 |  |  | 
CN(C)C[c-]1cccc1CNc1ccnc2cc(Cl)ccc12.[Fe+2].c1cc[cH-]c1 (centres unmarked) [Ferroquine] | 66 | 110 |  |  | 
CC(C)(C)NCc1cc(C(C)(C)C)cc(-c2cnc(C(F)(F)F)c(F)c2)c1O [JPC3210] | 97 | 100 |  |  | 
C[C@H]1Cc2c([nH]c3cc(Cl)c(F)cc23)[C@@]2(N1)C(=O)Nc1ccc(Cl)cc12 [KAE609] | 93 | 98 |  |  | 
CC1(C)c2nc(-c3ccc(F)cc3)c(Nc3ccc(F)cc3)n2CCN1C(=O)CN [KAF156] | 86 | 96 |  |  | 
O=C(NCCN1CCCC1)c1cc(-c2ccc(CN3CCOCC3)cc2)nc2ccc(F)cc12 [M5717] |  |  | 60 | 81 | 

Structure (SMILES) | A–B mass bal (Caco-2 cell monolayers [1]; matrix: human plasma) [%] | B–A mass bal (Caco-2 cell monolayers [1]; matrix: human plasma) [%] | A–B mass bal (Caco-2 cell monolayers [1]; matrix: pH 7.4 buffer) [%] | B–A mass bal (Caco-2 cell monolayers [1]; matrix: pH 7.4 buffer) [%] | also measured
CS(=O)(=O)c1ccc(-c2cnc(N)c(-c3ccc(C(F)(F)F)nc3)c2)cc1 [MMV048] |  |  | 82 | 98 | 
CC1(C)CC(O)(COc2ccc(C3CCC4(CC3)OOC3(O4)C4CC5CC(C4)CC3C5)cc2)CC(C)(C)N1 (centres unmarked) [MMV052] | 77 | 110 |  |  | 
Cc1nc(Nc2ncc(N3CCN(C)[C@H](C)C3)c(Nc3cc(C)n(C)n3)n2)cc(C2CC2)c1F [MMV253] | 84 | 94 |  |  | 
COc1cc(N[C@H](C)CCCN)c2nccc(C)c2c1Oc1ccc(Cl)c(Cl)c1 [NPC1161B] | 76 | 97 |  |  | 
CC(C)(C)NCc1cc(Nc2ccnc3cc(Cl)ccc23)c2c(c1O)CCCC2 [Naphthoquine] |  |  |  |  | A–B mass bal (Caco-2 cell monolayers [2]; matrix: human plasma): 72%; B–A mass bal (Caco-2 cell monolayers [2]; matrix: human plasma): 94%
CC(C)(N)CNC(=O)C[C@H]1CC[C@]2(CC1)OO[C@]1(O2)C2CC3CC(C2)CC1C3 [OZ277, Arterolane] | 67 | 100 |  |  | 
c1cc([C@H]2CC[C@]3(CC2)OO[C@]2(O3)C3CC4CC(C3)CC2C4)ccc1OCCN1CCOCC1 [OZ439] | 91 | 110 |  |  | 
CCc1nc(N)nc(N)c1OCCCOc1ccccc1CCC(=O)O.Cl [P218] |  |  | 96 | 100 | 
Clc1ccc2c(N3CCN(CCCN4CCN(c5ccnc6cc(Cl)ccc56)CC4)CC3)ccnc2c1 [Piperaquine] |  |  |  |  | A–B mass bal (Caco-2 cell monolayers [2]; matrix: human plasma): 100%; B–A mass bal (Caco-2 cell monolayers [2]; matrix: human plasma): 100%
COc1cc(NC(C)CCCN)c2ncccc2c1 (centres unmarked) [Primaquine] |  |  | 66 | 99 | 
[H]/N=C(\N/C(=N/[H])Nc1ccc(Cl)cc1)NC(C)C [Proguanil] |  |  | 82 | 95 | 
CCc1nc(N)nc(N)c1-c1ccc(Cl)cc1 [Pyrimethamine] |  |  | 75 | 100 | 
COc1ccc2nc3cc(Cl)ccc3c(Nc3cc(CN4CCCC4)c(O)c(CN4CCCC4)c3)c2n1 [Pyronaridine] | 63 | 87 |  |  | 
N#Cc1cc(NC(=O)[C@H]2c3ccccc3C(=O)N(CC(F)(F)F)[C@@H]2c2cccnc2)ccc1F [SJ733] |  |  | 93 | 99 | 
COc1ncnc(NS(=O)(=O)c2ccc(N)cc2)c1OC [Sulfadoxine] |  |  | 93 | 110 | 
CS(=O)(=O)O.FC1CCN(CCOc2ccc(C3CCC4(CC3)OOC3(OO4)C4CC5CC(C4)CC3C5)cc2)CC1 (centres unmarked) [TDD-E209] | 93 | 100 |  |  | 
COc1cc(C)c2c(Oc3cccc(C(F)(F)F)c3)c(OC)cc(NC(C)CCCN)c2n1 (centres unmarked) [Tafenoquine] | 79 | 110 |  |  | 
